Experimental data from article PMC3522678.
No constants are given. Whether binding was seen depends on the method and setting. In cells and extracts the contact can be indirect. Some binding calls cover weakened binding; strength is not graded here.

Amino acid sequences for entries named in this document (tags omitted). A change or cut given only in a name is not applied to a line headed by its entry. Chains listed by the source or under a name are the forms on record and can include a tag or linker.
GFP-tagged wild-type SET (Q01105, form named): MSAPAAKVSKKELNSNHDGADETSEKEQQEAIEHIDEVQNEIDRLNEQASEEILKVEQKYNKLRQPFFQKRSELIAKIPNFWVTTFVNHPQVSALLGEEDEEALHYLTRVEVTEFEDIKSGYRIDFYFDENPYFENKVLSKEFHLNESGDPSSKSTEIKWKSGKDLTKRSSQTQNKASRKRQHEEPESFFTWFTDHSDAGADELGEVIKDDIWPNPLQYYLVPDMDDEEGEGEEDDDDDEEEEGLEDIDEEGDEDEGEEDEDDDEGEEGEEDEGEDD

Molecular target: GFP-tagged wild-type SET (human) (UniProt Q01105)
Assay: co-IP; Jurkat cells or GFP-SET-WT expressing Jurkat cells (1×10^7) stimulated with PMA (20 ng/ml) and ionomycin (2 µg/ml) for 30 min at 37°C and lysed; lysate immunoprecipitated with anti-PKD2 or anti-GFP antibody and Protein A beads

- binding: binds
B1: Protein kinase D2 (enzyme, UniProt Q9BZL6 1-878)
chain: MATAPSYPAGLPGSPGPGSPPPPGGLELQSPPPLLPQIPAPGSGVSFHIQIGLTREFVLLPAASELAHVKQLACSIVDQKFPECGFYGLYDKILLFKHDPTSANLLQLVRSSGDIQEGDLVEVVLSASATFEDFQIRPHALTVHSYRAPAFCDHCGEMLFGLVRQGLKCDGCGLNYHKRCAFSIPNNCSGARKRRLSSTSLASGHSVRLGTSESLPCTAEELSRSTTELLPRRPPSSSSSSSASSYTGRPIELDKMLLSKVKVPHTFLIHSYTRPTVCQACKKLLKGLFRQGLQCKDCKFNCHKRCATRVPNDCLGEALINGDVPMEEATDFSEADKSALMDESEDSGVIPGSHSENALHASEEEEGEGGKAQSSLGYIPLMRVVQSVRHTTRKSSTTLREGWVVHYSNKDTLRKRHYWRLDCKCITLFQNNTTNRYYKEIPLSEILTVESAQNFSLVPPGTNPHCFEIVTANATYFVGEMPGGTPGGPSGQGAEAARGWETAIRQALMPVILQDAPSAPGHAPHRQASLSISVSNSQIQENVDIATVYQIFPDEVLGSGQFGVVYGGKHRKTGRDVAVKVIDKLRFPTKQESQLRNEVAILQSLRHPGIVNLECMFETPEKVFVVMEKLHGDMLEMILSSEKGRLPERLTKFLITQILVALRHLHFKNIVHCDLKPENVLLASADPFPQVKLCDFGFARIIGEKSFRRSVVGTPAYLAPEVLLNQGYNRSLDMWSVGVIMYVSLSGTFPFNEDEDINDQIQNAAFMYPASPWSHISAGAIDLINNLLQVKMRKRYSVDKSLSHPWLQEYQTWLDLRELEGKMGERYITHESDDARWEQFAAEHPLPGSGLPTDRDLGGACPPQDHDMQGLAERISVL
